This assay has as its target T1, TMEM98-V5 (mouse) (UniProt Q91X86).
T1 sequence: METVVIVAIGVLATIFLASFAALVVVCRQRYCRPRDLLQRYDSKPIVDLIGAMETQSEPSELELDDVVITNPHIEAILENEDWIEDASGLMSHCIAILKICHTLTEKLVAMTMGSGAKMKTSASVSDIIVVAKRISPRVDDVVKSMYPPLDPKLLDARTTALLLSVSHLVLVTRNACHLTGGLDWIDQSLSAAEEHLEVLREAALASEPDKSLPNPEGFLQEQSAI
The assay can be described thus: co-IP; HEK293T cells transiently co-transfected (5 μg of each plasmid), lysed after 24 hours in Cell Lysis Buffer; anti-V5 agarose affinity gel at 4°C overnight; Western blot with anti-MYC, anti-FLAG and anti-V5.

Results are given in words; binding and its absence hold for the method and conditions named. Binding seen in cells or lysates may run through a third protein. A result given as binding can be weak or reduced; the word gives no strength. Sequences can lack the tags named with a protein.

In article PMC7153906 one finds binding data, which are given here for five substances.

With “C-terminal part of MYRF tagged with FLAG (cleaved MYC-MYRF-FLAG) (domain or fragment)”, the binding result is on record as “binds”.
Regarding “C-terminal part of MYRFΔ19 tagged with FLAG (cleaved MYC-MYRFΔ19-FLAG) (domain or fragment)”, the binding result is “binds”.
For MYC-MYRFΔ19-FLAG (intact), the binding entry is on record as “binds”.
Take “N-terminal part of MYRF tagged with MYC (cleaved MYC-MYRF-FLAG) (domain or fragment)”: the binding result was “no binding”.
Regarding “N-terminal part of MYRFΔ19 tagged with MYC (cleaved MYC-MYRFΔ19-FLAG) (domain or fragment)”, the binding result is on record as “no binding”.
